Laboratory results published in the supplement of paper PMC4635364.
Structures can show the parent of a compound that is named as a salt. The list shows a part of the results. This data set is noisy: repeats of one test often differ as much as different tests do.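 Cells: ReNCell VM human fetal ventral-midbrain neural progenitors, differentiated mitogen-free. Blinded raters compared doublecortin-stained (early neurons) or tyrosine hydroxylase-stained (dopaminergic neurons) images with untreated wells, where 0 means no change. After repeats and both raters were averaged, compounds scoring 2 or above became hits for retesting.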

tested on: ReNCell VM; assay: neuronal differentiation score (DCX+ cell fraction vs untreated, manual image score) (score (-3 to 3)); higher = more neuronal differentiation; conditions: library: LOPAC; 2 uM; 2 weeks

Neuronal differentiation score, inactive:
COc1cccc(OC)c1OCCNCC1CSc2ccccc2O1 (stereo not drawn) [Benoxathian hydrochloride] 0
COc1ccc(CC(C)NCC(O)c2ccc(O)c(NC=O)c2)cc1 (stereo not drawn) [Formoterol] -1
O=C(O)C1=CC(=C(c2ccc(O)c(C(=O)O)c2)c2ccc(O)c(C(=O)O)c2)C=CC1=O [Aurintricarboxylic acid] 0
CNCCNS(=O)(=O)c1cccc2cnccc12 [H-8 dihydrochloride] 0
CN(C)CCC=C1c2ccccc2CCc2ccccc21 [Amitriptyline hydrochloride] 0
CN1Cc2sccc2C(c2ccc(O)c(O)c2)C1 (stereo not drawn) 0
CCCCCN(CCCCC)C(=O)C(CCC(=O)O)NC(=O)c1ccc(Cl)c(Cl)c1 (stereo not drawn) [Lorglumide sodium] 0
C[C@](N)(Cc1ccc(O)c(O)c1)C(=O)O [L-alpha-Methyl DOPA] 0
CCOC(=O)Nc1ccc(NCc2ccc(F)cc2)nc1N [Flupirtine maleate] 0

same assay, conditions: library: Prestwick; 2 uM; 2 weeks

Neuronal differentiation score, inactive:
CN(CCOc1ccc(CC2SC(=O)NC2=O)cc1)c1ccccn1 (stereo not drawn) [Rosiglitazone Hydrochloride] 0
CC(=O)Oc1ccc(C(c2ccc(OC(C)=O)cc2)c2ccccn2)cc1 [Bisacodyl] 0
N[C@@H](Cc1cc(I)c(Oc2ccc(O)c(I)c2)c(I)c1)C(=O)O [Liothyronine] 0
OC(CCN1CCCCC1)(c1ccccc1)c1ccccc1 [Pridinol methanesulfonate salt] 0
CCOc1ccc2c(c1)C(C)=CC(C)(C)N2 [Ethoxyquin] 0
CC(C)NC[C@@H](O)COc1ccc(CC(N)=O)cc1 [(R)-(+)-Atenolol] 0
CN(C)CC/C=C1\c2ccccc2CSc2ccccc21 [Dosulepin hydrochloride] 0
Nc1ncn(C2OC(CO)C(O)C2O)c(=O)n1 (stereo not drawn) [Azacytidine-5] 0

An excerpt from above in order of molecular weight, largest number first.
Neuronal differentiation score, inactive:
N[C@@H](Cc1cc(I)c(Oc2ccc(O)c(I)c2)c(I)c1)C(=O)O [Liothyronine] 0
CN(CCOc1ccc(CC2SC(=O)NC2=O)cc1)c1ccccn1 (stereo not drawn) [Rosiglitazone Hydrochloride] 0
CN(C)CC/C=C1\c2ccccc2CSc2ccccc21 [Dosulepin hydrochloride] 0
CC(C)NC[C@@H](O)COc1ccc(CC(N)=O)cc1 [(R)-(+)-Atenolol] 0

same assay, conditions: library: Spectrum; 2 uM; 2 weeks

Neuronal differentiation score, inactive:
NCc1ccccc1CC(=O)N[C@@H]1C(=O)N2C(C(=O)O)=C(CSc3nnnn3CC(=O)O)CS[C@H]12 0
C=C(C)[C@@H]1CC[C@]2(C(=O)O)CC[C@]3(C)[C@H](CC[C@@H]4[C@@]5(C)CC[C@H](O)C(C)(C)[C@@H]5CC[C@]43C)[C@@H]12 1
OCCN1C[C@H](O)[C@@H](O)[C@H](O)[C@H]1CO 0
C=CCCCCCCCCC(=O)O 0
O=C(CCc1ccc(O)cc1)c1c(O)cc(O)cc1O 0
COC(=O)C1=C(C)NC(C)=C(C(=O)OC)C1c1ccccc1[N+](=O)[O-] 1
NCCNC(=O)c1ccc(Cl)cc1 0
CC1CC(OC(=O)c2ccccc2O)CC(C)(C)C1 (stereo not drawn) 0
CC(=O)CC(c1ccc([N+](=O)[O-])cc1)c1c(O)c2ccccc2oc1=O (stereo not drawn) 0
CC(C)C(=O)Nc1ccc([N+](=O)[O-])c(C(F)(F)F)c1 1
O=C(O[C@@H]1Cc2c(O)cc(O)cc2O[C@@H]1c1cc(O)c(O)c(O)c1)c1cc(O)c(O)c(O)c1 0
CC1(C)[C@H](C(=O)O)N2C(=O)C[C@H]2S1(=O)=O 0
O=C(O)c1ccc[n+]([O-])c1 0
CCOc1ccc2nc3cc(N)ccc3c(N)c2c1 0
CN(C)CCOC(C)(c1ccccc1)c1ccccn1 (stereo not drawn) 0
COc1cc(C(=O)NCc2ccc(OCCN(C)C)cc2)cc(OC)c1OC 0
OCCN1CCN(CCCN2c3ccccc3Sc3ccc(C(F)(F)F)cc32)CC1 1
C[C@H](CCC(=O)NCC(=O)O)[C@H]1CC[C@H]2[C@@H]3[C@H](O)C[C@@H]4C[C@H](O)CC[C@]4(C)[C@H]3C[C@H](O)[C@]12C 0
CC(N)C(=O)OC(C)(C)Cc1ccc(Cl)cc1 (stereo not drawn) 0

same assay, conditions: library: Tocriscreen; 2 uM; 2 weeks

Neuronal differentiation score, inactive:
COC(=O)c1c(-c2cc(OC)c(OC)c(OC)c2)c2ccnc(OCc3ncccn3)c2c(=O)n1Cc1ccnc(C)c1 [T 0156 hydrochloride] 0
O=C1N(c2ccccc2)c2ccccc2C1(Cc1ccncc1)Cc1ccncc1 [Linopirdine dihydrochloride] 0
CC(C(O)c1ccc(O)cc1)N1CCC(Cc2ccccc2)CC1 (stereo not drawn) [Ifenprodil hemitartrate] 0

tested on: ReNCell VM; assay: dopaminergic neuron differentiation score (TH+ cell fraction vs untreated, manual image score) (score (0 to 3)); higher = more TH+ dopaminergic neuron differentiation; conditions: library: LOPAC; 2 uM; 4 weeks; BDNF 10 ng/ml + GDNF 10 ng/ml

Dopaminergic neuron differentiation score, inactive:
COc1cccc(OC)c1OCCNCC1CSc2ccccc2O1 (stereo not drawn) [Benoxathian hydrochloride] 0
COc1ccc(CC(C)NCC(O)c2ccc(O)c(NC=O)c2)cc1 (stereo not drawn) [Formoterol] 0
O=C(O)C1=CC(=C(c2ccc(O)c(C(=O)O)c2)c2ccc(O)c(C(=O)O)c2)C=CC1=O [Aurintricarboxylic acid] 0
CNCCNS(=O)(=O)c1cccc2cnccc12 [H-8 dihydrochloride] 0
CN(C)CCC=C1c2ccccc2CCc2ccccc21 [Amitriptyline hydrochloride] 0
CN1Cc2sccc2C(c2ccc(O)c(O)c2)C1 (stereo not drawn) 0
CCCCCN(CCCCC)C(=O)C(CCC(=O)O)NC(=O)c1ccc(Cl)c(Cl)c1 (stereo not drawn) [Lorglumide sodium] 0
C[C@](N)(Cc1ccc(O)c(O)c1)C(=O)O [L-alpha-Methyl DOPA] 0
CCOC(=O)Nc1ccc(NCc2ccc(F)cc2)nc1N [Flupirtine maleate] 0
